Values of other authors as cited in patent US12263192B2, “Compositions for management of disorders of the gastrointestinal tract” (PanTheryx, Inc., priority 2019, dated 2025).
For at least one compound, name, drawing or mass did not settle the structure.

System: rotavirus infection in MA-104 cells
Conditions: cited from earlier work

For `O=c1cc(-c2ccc(O)cc2)oc2c([C@@H]3O[C@H](CO)[C@@H](O)[C@H](O)[C@H]3O)c(O)cc(O)c12` [vitexin], the “antiviral activity against rotavirus infection” value is given as “antiviral activity”.
